Assay results from PubChem BioAssay AID1347075 (National Center for Advancing Translational Sciences (NCATS), 2019).
About 5,500 (1.4%) of roughly 400,000 compounds were called active. Inconclusive means that the source gave no clear call. Such entries were picked first, then a sample of the others. Calls follow the shape of the dose curve; as a rule, active = well fitted cell-killing curve with a large enough effect; inconclusive = small, poorly fitted or top-dose-only effect, or effect the other way; inactive = flat fitted curve, though single readings scatter. Potencies beside an inconclusive call are fits to weak or partial responses and may not hold up.

Assay: qHTS assay for MDR1-selective chemotherapeutics: Primary screen using the parental adenocarcinoma cell KB-3-1; also: nearly all actives have a fitted effect of over 60% in size
Settings: KB-3-1 viability, CellTiter-Glo ATP luminescence, 72 h; activity change, negative = cytotoxic: at 46.1 µM (top of the series)
Method in brief: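 Cytotoxicity in the drug-sensitive parental line KB-3-1 was scored as loss of CellTiter-Glo luminescence following 72 h incubation with compound. Values come from curve fitting of normalized concentration-response data.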
% is scaled to controls: 0 for no effect and ±100 for the full control effect; potency is read from the fitted curve at half-maximal effect.

Compound | Potency | activity change, negative = cytotoxic
COc1cccc(C(=O)Nc2ccc3nc(SCC(=O)N(C)c4ccccc4)sc3c2)c1 | inconclusive: 8.2 µM [cytotoxic, partial curve, poor fit] | 
COc1ccc2[nH]c3c(c2c1)CCN1C(=O)C(CC(=O)NCCCn2ccnc2)C[C@H](C(=O)N2CCOCC2)[C@@]31CCC1CCCC1 (stereo not given in full) |  | inconclusive: -13.6%
Cc1ccc(CNC(=O)c2ccc(CSc3nc4ccncc4n3Cc3ccc(C)cc3)cc2)cc1 | inconclusive: 14.6 µM [cytotoxic, partial curve, poor fit] | 
COc1ccc(NC(=O)Nc2ccc3c(c2)C(=O)N([C@@H](C)CO)C[C@@H](C)[C@@H](CN(C)CC2CCCCC2)O3)cc1 | inactive | 
Cc1sc2ncnc(N3CCC(C(=O)NNC(=O)COc4cccc(C(F)(F)F)c4)CC3)c2c1C | inactive | 
COc1ccc(CC(N)c2csc(NC(=O)c3ccc(OC)cc3)n2)cc1 (stereo not given) | inactive | 
O=C1Nc2ccc([N+](=O)[O-])cc2OC1CCN1CCN(c2ccccc2)CC1 (stereo not given) | inconclusive: 29.1 µM [cytotoxic, partial curve, poor fit] | 
COc1ccc(S(=O)(=O)Oc2ccc3cccc(N)c3c2)cc1 | inconclusive: 20.6 µM [cytotoxic, partial curve, poor fit] | 
COc1ccc(-c2c(C(=O)c3ccccc3)[nH]c(N)c2C(=O)c2ccccc2)cc1OC | inconclusive: 18.4 µM [rising, single point] | 
CCN(Cc1ccccc1)C(=O)c1oc2ccc(S(=O)(=O)N3CCOCC3)cc2c1C | inconclusive: 29.1 µM [cytotoxic, single point] | 
COc1ccccc1-c1nnc2sc(COc3ccc(Cl)cc3)nn12 | inactive | 
COc1ccc(NC(=O)Cn2c(=O)n(-c3ccccc3)c(=O)c3sccc32)c(OC)c1 | inconclusive: 18.4 µM [cytotoxic, single point] | 
CC1CCCCC1NC(=O)CSc1nnc(-c2ccncc2)n1CCCN(C)C (stereo not given) | inconclusive: 0.517 µM [rising, full curve, poor fit] | 
C=CCN(C(=O)CSc1nc2[nH]ncc2c(=O)n1-c1ccccc1OC)c1ccccc1 | inconclusive: 23.1 µM [rising, single point] | 
Cc1ccc(S(=O)(=O)N2CCOC23CCN(C(=O)c2cc(Cl)ccc2Cl)CC3)cc1 | inconclusive: 25.9 µM [cytotoxic, single point] | 
CN(C)c1ccc(C(=O)OCC(=O)c2cccs2)cc1 | inactive | 
Cc1nn(-c2ccc(F)cc2)c2nc(N)c(C#N)c(-c3cccs3)c12 | inconclusive: 29.1 µM [cytotoxic, single point] | 
O=C(Cn1nc(C(F)(F)F)c2c1CCCC2)Nc1cccc(Cl)c1 | inconclusive: 29.1 µM [cytotoxic, single point] | 
Cc1cccc(N(CC(=O)NC2CC3CCC2C3)S(=O)(=O)c2ccccc2)c1 (stereo not given) | inconclusive: 16.4 µM [cytotoxic, single point] | 
COc1ccc(CNC(=O)c2cnc(C)cn2)c(OC)c1 | inactive | 
COc1ccc(OC)c(CN2CCC(C(=O)N3CCOCC3)CC2)c1 | inactive | 
COCCNC(=O)CN(C(=O)Cn1nnc2ccccc21)c1ccc(F)c(Cl)c1 | inconclusive: 14.6 µM [rising, partial curve, poor fit] | 

Rewritten in CSV form: three of the compounds above.
Compound,Potency,"activity change, negative = cytotoxic"
O=C(Cn1nc(C(F)(F)F)c2c1CCCC2)Nc1cccc(Cl)c1,"inconclusive: 29.1 µM [cytotoxic, single point]",
Cc1cccc(N(CC(=O)NC2CC3CCC2C3)S(=O)(=O)c2ccccc2)c1 (stereo not given),"inconclusive: 16.4 µM [cytotoxic, single point]",
COc1ccc(CNC(=O)c2cnc(C)cn2)c(OC)c1,inactive,

The results go on:

Compound | Potency | activity change, negative = cytotoxic
CCOc1ccc(-n2c(C)cc(/C=C3/C(=N)N4C(=NC3=O)SN=C4S(C)(=O)=O)c2C)cc1 | inactive | 
COc1ccc(N(Cc2cc3cccc(C)c3[nH]c2=O)S(=O)(=O)c2ccc(Cl)cc2)cc1 | inactive | 
O=C(CCCN1C(=O)/C(=C/c2cccc(Br)c2)SC1=S)N1CCOCC1 | inconclusive: 25.9 µM [cytotoxic, single point] | 
CCOP(=O)(OCC)C(NC(=O)c1cccs1)c1ccccc1 (stereo not given) | inconclusive: 0.013 µM [cytotoxic, full curve] | 
CC(C)c1ccc(NC(=O)CSc2n[nH]c(=O)n2-c2ccc3c(c2)OCCO3)cc1 | inactive | 
O=C(NC1CC1)C1CCN(S(=O)(=O)c2ccc(Cl)c([N+](=O)[O-])c2)CC1 | inconclusive: 29.1 µM [cytotoxic, partial curve, poor fit] | 
Cc1ccc(S(=O)(=O)NCCCCCCNS(=O)(=O)c2ccc(C)cc2)cc1 | inconclusive: 32.6 µM [cytotoxic, single point] | 
C[C@H](NC(=O)C1CCN(S(=O)(=O)c2ccccc2)CC1)C(=O)NC1CC1 | inconclusive: 1.03 µM [rising, full curve] | 
O=C(Cn1ccc2cc(S(=O)(=O)N3CCCCCC3)ccc21)NCc1ccccc1Cl | inactive | 
CC1=NN(c2ccc([N+](=O)[O-])cc2)C(=O)/C1=C\N(C)C | inconclusive: 20.6 µM [cytotoxic, single point] | 
COc1ccc(S(=O)(=O)N(CC(=O)NCc2ccncc2)c2cc(C)cc(C)c2)cc1OC | inactive | 
O=C1/C(=C\c2ccccn2)SC(=S)N1Nc1ncc(C(F)(F)F)cc1Cl | inconclusive: 20.6 µM [rising, partial curve, poor fit] | 
Brc1ccc2ncc3ccccc3c2c1 | inactive | 
O=C(Nc1cc(-c2ccccc2)[nH]n1)c1ccc(Cl)cc1 | inconclusive: 20.6 µM [cytotoxic, partial curve, poor fit] | 
COc1ccc(/C=C(/NC(=O)c2ccc(Br)o2)C(=O)Nc2cccc(C(=O)O)c2)cc1 | inactive | 
COc1ccc(C(=O)Nc2oc(-c3ccccc3)c(-c3ccccc3)c2C#N)cc1 | inconclusive: 25.9 µM [cytotoxic, single point] | 
O=C(CCN1CCCCC1)Nc1cccc(Cl)c1 | inactive | 
CC(=O)N1CCN(Cc2nc3cc(NC(=O)c4ccccc4Cl)ccc3n2C)CC1 | inactive | 
CC(=O)CSc1nc2c(c(=O)[nH]c(=O)n2C)n1Cc1cccc(Br)c1 | inconclusive: 16.4 µM [cytotoxic, single point] | 
COc1ccc(S(=O)(=O)N(CC(=O)O)c2ccc(C)cc2)cc1 | inactive | 
CN(C(=O)c1ccc(NC(=O)Cc2ccc([N+](=O)[O-])cc2)cc1)C1CCCC1 | inactive | 
Cn1c(C(=O)NCCc2c[nH]c3ccccc23)cc2sccc21 | inconclusive: 18.4 µM [cytotoxic, single point] | 

Given comma-delimited: entries from further up
Compound,Potency,"activity change, negative = cytotoxic"
O=C(NC1CC1)C1CCN(S(=O)(=O)c2ccc(Cl)c([N+](=O)[O-])c2)CC1,"inconclusive: 29.1 µM [cytotoxic, partial curve, poor fit]",
CC1=NN(c2ccc([N+](=O)[O-])cc2)C(=O)/C1=C\N(C)C,"inconclusive: 20.6 µM [cytotoxic, single point]",

More compounds follow:

Compound | Potency | activity change, negative = cytotoxic
O=C(Nc1ccc(S(=O)(=O)N2CCOCC2)cc1)c1cc([N+](=O)[O-])ccc1Cl | inconclusive: 20.6 µM [cytotoxic, single point] | 
CCOc1ccc(NC(=O)c2cc(OC)nc3ccccc23)cc1 | active: 1.16 µM | 
Cc1ccccc1S(=O)Cc1ccc(C(=O)N2CCN(C3CCCCC3)CC2)o1 (stereo not given) | inactive | 
COC(=O)c1ccc(COC(=O)c2ccc(CS(=O)(=O)c3ccc(C)cc3)cc2)cc1 | inactive | 
COc1ccc2c(c1)[C@H]1[C@H](CO2)[C@H](c2ccccc2)[C@]2(C)C(=O)Nc3cc(F)ccc3C(=O)N12 | inconclusive: 23.1 µM [cytotoxic, partial curve, poor fit] | 
O=C(NC1CCCCC1)C(c1ccc(F)cc1)N(CCc1ccccc1)C(=O)CN1C(=O)c2ccccc2S1(=O)=O (stereo not given) | inconclusive: 29.1 µM [cytotoxic, single point] | 
CC(C)(C)OC(=O)NCc1ccc(CNC(=O)c2[nH]cnc2C(=O)N[C@@H](Cc2ccccc2)C(=O)OC(C)(C)C)cc1 | inconclusive: 16.4 µM [cytotoxic, single point] | 
CCOC(=O)CN1C(=O)C(O)(CC(=O)c2ccco2)c2ccccc21 (stereo not given) | inconclusive: 20.6 µM [cytotoxic, single point] | 
COc1ccc(/C=N/Nc2nc3ccccc3c(=O)[nH]2)cc1 | inconclusive: 14.6 µM [rising, single point] | 
CCC(C)(C)c1ccc(Oc2ccc(NC(=O)COC(=O)C3=COCCO3)cc2)cc1 | inconclusive: 32.6 µM [cytotoxic, single point] | 
COc1ccc(-c2nc3c(Cl)cc(C(F)(F)F)cn3c2Cc2ccsc2)cc1OC | inactive | 
C[C@@H]1CN([C@H](C)CO)C(=O)Cc2cc(NC(=O)Nc3ccccc3)ccc2O[C@@H]1CN(C)Cc1ccc2c(c1)OCO2 | inconclusive: 29.1 µM [cytotoxic, single point] | 
COc1ccc(N2CCN(C(c3ccccc3)c3nnnn3C(C)C)CC2)cc1 (stereo not given) | inconclusive: 29.1 µM [rising, single point] | 
Cc1c(C(=O)Nc2ccc3nc(N4CCOCC4)sc3c2)oc2ccccc12 | inconclusive: 29.1 µM [cytotoxic, single point] | 
CCN(CC)C(=O)Cn1c(=O)cc(C)c2c(C)nn(-c3ccc(C)cc3)c21 | inactive | 
CCOC(=O)c1ccc(N=c2sc(C(=O)OC)cc(=O)n2CCCN2CCOCC2)cc1 | inconclusive: 25.9 µM [cytotoxic, single point] | 
Cc1ccc(N=C2NC(=O)/C(=C/c3cccn3C)S2)cc1 | inconclusive: 29.1 µM [cytotoxic, single point] | 
O=C(C[n+]1cc(-c2ccccc2)n2c1CCC2)c1cccs1 | inconclusive: 16.4 µM [cytotoxic, partial curve, poor fit] | 
O=C(/C=C/c1ccc(S(=O)(=O)NCc2ccco2)cc1)NCc1ccccc1Cl | inconclusive: 29.1 µM [cytotoxic, single point] | 
Cc1cc(NC(=O)c2ccc3c(c2)OCCO3)ccc1NC(=O)c1cc2ccccc2o1 | inconclusive: 29.1 µM [cytotoxic, single point] | 
O=C(OCC(=O)N1CCN(C(=O)c2ccco2)CC1)c1cc(-c2ccc(Cl)c(Cl)c2Cl)nc2ccccc12 | inconclusive: 29.1 µM [cytotoxic, single point] | 
